Measurements as given in the supplement of paper PMC10849652.
Some of the results follow.

Protein sequences, listed by entry. Tags and fused reporters are not part of them. Lines headed by an entry give the natural chain unless they say otherwise; changes in a name come on top.
UniProt Q9UHK0: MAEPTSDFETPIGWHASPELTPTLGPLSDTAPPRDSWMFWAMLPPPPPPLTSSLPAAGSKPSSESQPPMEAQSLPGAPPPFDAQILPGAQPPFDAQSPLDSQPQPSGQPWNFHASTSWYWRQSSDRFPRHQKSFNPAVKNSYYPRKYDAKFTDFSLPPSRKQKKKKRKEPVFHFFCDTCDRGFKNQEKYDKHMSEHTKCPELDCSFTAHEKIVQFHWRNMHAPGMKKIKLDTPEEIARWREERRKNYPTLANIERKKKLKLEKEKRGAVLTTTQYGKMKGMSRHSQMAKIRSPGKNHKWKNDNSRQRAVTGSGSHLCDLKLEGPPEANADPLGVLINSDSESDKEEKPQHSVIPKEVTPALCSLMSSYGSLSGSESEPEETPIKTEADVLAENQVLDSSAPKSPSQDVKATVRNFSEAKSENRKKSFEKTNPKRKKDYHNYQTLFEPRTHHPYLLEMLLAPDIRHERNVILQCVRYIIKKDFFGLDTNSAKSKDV
UniProt P13056: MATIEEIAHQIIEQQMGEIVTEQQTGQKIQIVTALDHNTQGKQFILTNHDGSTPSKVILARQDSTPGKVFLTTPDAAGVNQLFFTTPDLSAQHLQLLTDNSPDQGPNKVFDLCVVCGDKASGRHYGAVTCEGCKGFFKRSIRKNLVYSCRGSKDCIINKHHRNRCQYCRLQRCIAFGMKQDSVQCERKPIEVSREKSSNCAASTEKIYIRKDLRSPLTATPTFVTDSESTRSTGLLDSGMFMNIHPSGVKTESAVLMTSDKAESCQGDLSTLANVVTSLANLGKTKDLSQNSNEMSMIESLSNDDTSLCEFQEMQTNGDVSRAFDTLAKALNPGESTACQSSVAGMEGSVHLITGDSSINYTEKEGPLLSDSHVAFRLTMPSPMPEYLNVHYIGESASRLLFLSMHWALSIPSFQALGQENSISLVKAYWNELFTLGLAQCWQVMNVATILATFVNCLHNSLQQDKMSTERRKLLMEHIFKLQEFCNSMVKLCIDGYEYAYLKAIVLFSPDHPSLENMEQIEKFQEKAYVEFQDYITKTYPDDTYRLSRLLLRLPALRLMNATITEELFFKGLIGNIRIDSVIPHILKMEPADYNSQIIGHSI
UniProt P48552: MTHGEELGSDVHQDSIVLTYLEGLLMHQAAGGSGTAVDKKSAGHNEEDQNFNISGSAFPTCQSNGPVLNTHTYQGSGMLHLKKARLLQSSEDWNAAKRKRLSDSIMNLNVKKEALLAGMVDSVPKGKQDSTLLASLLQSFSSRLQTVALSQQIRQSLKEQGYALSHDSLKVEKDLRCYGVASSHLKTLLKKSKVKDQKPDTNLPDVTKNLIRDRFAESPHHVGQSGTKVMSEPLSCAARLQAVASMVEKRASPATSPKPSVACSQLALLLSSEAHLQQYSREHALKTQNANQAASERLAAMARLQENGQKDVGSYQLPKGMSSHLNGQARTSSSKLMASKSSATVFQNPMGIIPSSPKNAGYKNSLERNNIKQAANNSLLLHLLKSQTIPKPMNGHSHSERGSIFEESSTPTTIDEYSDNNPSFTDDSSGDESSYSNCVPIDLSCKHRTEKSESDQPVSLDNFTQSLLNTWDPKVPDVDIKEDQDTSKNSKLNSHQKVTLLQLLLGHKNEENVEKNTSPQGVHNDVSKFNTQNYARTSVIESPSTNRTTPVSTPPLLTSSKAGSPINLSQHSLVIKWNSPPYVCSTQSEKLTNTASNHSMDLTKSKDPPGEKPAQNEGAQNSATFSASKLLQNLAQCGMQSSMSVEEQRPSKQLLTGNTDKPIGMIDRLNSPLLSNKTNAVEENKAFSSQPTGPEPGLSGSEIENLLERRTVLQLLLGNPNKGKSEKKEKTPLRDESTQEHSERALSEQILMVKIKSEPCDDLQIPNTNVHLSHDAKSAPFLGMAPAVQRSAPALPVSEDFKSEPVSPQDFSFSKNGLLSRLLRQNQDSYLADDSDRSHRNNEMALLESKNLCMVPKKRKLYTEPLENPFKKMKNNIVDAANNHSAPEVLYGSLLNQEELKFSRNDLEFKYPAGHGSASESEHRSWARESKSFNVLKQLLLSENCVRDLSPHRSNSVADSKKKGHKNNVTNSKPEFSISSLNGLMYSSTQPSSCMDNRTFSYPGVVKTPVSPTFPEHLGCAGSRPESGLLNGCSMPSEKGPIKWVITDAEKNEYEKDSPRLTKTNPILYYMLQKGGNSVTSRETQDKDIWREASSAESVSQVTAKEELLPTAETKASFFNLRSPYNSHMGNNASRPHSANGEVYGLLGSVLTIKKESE
UniProt O95848: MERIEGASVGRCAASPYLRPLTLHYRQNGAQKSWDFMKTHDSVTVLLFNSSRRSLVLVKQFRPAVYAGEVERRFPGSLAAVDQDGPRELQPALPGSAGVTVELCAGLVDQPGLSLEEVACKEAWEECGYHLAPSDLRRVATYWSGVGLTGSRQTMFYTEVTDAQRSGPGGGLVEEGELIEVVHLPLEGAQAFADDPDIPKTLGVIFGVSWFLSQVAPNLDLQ
UniProt O75052: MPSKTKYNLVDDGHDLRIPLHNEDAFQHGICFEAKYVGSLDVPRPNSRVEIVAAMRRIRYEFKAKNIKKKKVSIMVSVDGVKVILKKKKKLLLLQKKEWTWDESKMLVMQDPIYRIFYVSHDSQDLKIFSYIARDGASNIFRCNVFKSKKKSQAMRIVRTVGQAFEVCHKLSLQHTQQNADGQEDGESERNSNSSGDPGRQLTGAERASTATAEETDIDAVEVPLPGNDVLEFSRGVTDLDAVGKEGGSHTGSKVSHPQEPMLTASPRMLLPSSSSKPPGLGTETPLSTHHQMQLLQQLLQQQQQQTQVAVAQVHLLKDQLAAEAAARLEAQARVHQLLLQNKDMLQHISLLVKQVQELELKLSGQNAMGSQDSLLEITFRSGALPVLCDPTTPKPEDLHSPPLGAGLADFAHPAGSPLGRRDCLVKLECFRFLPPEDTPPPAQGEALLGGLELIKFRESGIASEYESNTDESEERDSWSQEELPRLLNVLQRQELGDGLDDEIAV
UniProt Q92686, whole entry, looked up: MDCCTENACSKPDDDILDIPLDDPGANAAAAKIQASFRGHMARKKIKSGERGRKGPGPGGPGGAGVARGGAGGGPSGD
UniProt P24468: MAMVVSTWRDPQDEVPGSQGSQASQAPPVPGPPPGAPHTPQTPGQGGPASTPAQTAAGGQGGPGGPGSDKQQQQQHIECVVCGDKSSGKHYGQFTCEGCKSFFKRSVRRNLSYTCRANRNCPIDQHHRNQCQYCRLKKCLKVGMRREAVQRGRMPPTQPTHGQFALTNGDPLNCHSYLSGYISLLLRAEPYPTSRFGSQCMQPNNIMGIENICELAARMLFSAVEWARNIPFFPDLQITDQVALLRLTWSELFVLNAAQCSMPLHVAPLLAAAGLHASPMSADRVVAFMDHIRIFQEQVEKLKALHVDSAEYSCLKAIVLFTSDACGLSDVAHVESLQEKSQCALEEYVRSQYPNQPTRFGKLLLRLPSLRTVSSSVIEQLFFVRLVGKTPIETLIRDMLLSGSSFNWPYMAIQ
UniProt Q14978: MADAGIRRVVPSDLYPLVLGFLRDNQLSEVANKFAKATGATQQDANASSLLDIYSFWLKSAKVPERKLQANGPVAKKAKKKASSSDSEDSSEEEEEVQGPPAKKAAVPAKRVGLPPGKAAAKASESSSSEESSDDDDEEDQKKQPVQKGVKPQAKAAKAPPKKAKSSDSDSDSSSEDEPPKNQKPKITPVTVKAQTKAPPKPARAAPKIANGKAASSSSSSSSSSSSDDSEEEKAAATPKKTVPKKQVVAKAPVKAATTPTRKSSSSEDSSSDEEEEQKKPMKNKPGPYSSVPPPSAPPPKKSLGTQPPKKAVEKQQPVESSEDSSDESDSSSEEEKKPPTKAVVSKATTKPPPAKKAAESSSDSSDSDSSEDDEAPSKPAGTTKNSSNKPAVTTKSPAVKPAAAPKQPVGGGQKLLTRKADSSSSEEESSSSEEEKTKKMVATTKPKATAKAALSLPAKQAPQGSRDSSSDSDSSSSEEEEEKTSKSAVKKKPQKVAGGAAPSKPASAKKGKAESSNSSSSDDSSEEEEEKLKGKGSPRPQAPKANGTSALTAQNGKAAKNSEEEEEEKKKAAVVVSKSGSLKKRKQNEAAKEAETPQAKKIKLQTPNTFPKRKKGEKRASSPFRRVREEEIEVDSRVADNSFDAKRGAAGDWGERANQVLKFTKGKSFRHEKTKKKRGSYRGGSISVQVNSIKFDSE
UniProt Q15155: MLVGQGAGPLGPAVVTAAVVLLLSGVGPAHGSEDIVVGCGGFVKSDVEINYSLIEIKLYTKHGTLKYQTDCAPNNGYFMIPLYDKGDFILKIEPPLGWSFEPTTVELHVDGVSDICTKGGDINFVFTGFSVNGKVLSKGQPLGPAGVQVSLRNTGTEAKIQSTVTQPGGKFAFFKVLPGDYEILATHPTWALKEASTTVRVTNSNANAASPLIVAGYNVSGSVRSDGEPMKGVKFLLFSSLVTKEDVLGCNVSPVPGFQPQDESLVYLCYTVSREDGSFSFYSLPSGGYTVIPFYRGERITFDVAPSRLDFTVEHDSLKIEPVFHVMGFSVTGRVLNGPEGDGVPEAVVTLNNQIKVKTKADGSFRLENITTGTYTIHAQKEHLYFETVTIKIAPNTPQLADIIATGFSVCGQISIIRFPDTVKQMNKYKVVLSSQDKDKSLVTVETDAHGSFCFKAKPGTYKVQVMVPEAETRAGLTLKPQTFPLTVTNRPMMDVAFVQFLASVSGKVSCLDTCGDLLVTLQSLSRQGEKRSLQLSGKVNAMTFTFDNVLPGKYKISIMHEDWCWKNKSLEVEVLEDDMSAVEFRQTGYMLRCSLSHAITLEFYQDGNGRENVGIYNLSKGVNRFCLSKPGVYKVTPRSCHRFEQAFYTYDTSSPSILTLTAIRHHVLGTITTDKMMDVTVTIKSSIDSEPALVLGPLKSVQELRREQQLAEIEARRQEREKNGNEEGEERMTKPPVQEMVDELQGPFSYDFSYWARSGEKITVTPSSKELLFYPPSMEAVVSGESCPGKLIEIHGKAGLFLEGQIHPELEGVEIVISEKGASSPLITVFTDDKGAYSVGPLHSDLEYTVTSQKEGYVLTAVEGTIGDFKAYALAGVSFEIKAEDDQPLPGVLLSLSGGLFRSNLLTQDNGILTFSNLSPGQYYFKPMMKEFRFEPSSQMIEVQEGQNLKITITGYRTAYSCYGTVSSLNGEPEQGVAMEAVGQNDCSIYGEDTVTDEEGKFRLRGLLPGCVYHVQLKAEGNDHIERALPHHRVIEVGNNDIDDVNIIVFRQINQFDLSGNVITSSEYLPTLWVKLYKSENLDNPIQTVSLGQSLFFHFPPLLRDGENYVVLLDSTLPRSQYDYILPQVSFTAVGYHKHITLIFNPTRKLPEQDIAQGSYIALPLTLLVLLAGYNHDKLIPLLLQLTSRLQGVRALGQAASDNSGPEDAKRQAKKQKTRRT
UniProt P46087: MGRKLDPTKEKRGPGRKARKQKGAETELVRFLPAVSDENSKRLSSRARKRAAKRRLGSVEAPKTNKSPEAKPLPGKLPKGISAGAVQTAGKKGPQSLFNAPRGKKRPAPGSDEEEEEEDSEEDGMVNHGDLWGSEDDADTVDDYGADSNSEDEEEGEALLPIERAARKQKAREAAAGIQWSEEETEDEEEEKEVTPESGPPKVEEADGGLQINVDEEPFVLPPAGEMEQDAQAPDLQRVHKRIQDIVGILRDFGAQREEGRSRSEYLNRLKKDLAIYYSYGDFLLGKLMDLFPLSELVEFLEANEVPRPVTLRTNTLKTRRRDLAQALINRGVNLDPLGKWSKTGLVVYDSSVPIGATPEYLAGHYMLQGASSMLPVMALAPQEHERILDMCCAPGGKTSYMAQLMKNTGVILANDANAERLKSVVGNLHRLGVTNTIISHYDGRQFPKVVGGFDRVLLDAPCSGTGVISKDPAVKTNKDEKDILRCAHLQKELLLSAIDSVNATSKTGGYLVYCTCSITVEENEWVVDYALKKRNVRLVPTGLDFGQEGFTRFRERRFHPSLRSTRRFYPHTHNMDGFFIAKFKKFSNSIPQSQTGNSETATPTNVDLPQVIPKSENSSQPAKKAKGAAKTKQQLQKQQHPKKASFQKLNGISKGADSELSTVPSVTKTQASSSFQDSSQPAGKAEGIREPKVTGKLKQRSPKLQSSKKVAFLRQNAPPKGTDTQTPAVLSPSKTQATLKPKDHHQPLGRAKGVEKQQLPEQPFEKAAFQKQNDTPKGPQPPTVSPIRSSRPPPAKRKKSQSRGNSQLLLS
UniProt Q9NPE3: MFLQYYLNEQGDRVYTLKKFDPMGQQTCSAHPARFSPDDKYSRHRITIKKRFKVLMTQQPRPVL
UniProt Q96AB6: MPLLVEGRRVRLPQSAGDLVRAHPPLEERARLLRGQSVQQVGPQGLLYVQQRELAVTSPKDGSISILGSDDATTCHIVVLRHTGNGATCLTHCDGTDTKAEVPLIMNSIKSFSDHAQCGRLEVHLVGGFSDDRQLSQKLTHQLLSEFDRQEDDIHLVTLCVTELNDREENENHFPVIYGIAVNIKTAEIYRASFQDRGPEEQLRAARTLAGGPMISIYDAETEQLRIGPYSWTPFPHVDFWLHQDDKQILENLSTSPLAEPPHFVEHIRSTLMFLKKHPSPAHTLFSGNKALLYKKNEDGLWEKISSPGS

Each target was assayed with C1=CC=C(C=C1)[C@H](COC2=CC3=C(C=C2)NC(=O)N3)NC(=O)C4=CC=CN(C4=O)CC5=CC(=C(C=C5)F)F (assay: log2 fold change, soluble protein after heating vs DMSO (PISA); higher = thermal stabilisation; K562 lysate, 10 uM; active = over 0.2 and 3.5 SD of the protein, either way, in both replicates (recomputed)).
Procedure, shortened: (§1)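 K562 pellets were dounce-homogenised in PBS pH 7.4 containing 1 mM MgCl2, and the crude extract, at 1 mg/mL protein, was exposed to 10 μM compound for 30 min. Aliquots were heated for 3 min across 48°C-58°C, pooled, brought to 0.5% NP-40 at 4°C and spun at 21,000xg for 90 min, with the supernatant taken as soluble protein. TMTpro 16plex LC-MS/MS with equalised channel sums quantified that protein. Values are log-two fold changes in thermal stability relative to solvent controls, taken from duplicates.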

| Target | log2 fold change |
| --- | --- |
| NUFIP1 (UniProt Q9UHK0) | inactive: 0.032 |
| NR2C1 (UniProt P13056) | inactive: 0.003 |
| NRIP1 (UniProt P48552) | inactive: 0.058 |
| NUDT14 (UniProt O95848) | inactive: 0.06 |
| NSUN7 (UniProt Q8NE18) | inactive: -0.144 |
| NSD2 (UniProt O96028) | inactive: -0.14 |
| NOS1AP (UniProt O75052) | inactive: -0.404 |
| NRGN (UniProt Q92686) | inactive: 0.024 |
| NR2F2 (UniProt P24468) | inactive: -0.082 |
| NOLC1 isoform 3 (UniProt Q14978) | inactive: -0.082 |
| NRDE2 (UniProt Q9H7Z3) | inactive: -0.167 |
| NOMO1 (UniProt Q15155) | inactive: 0.064 |
| NOP2 isoform 4 (UniProt P46087) | inactive: 0.046 |
| NOP10 (UniProt Q9NPE3) | inactive: 0.018 |
| NSD3 (UniProt Q9BZ95) | inactive: 0.216 |
| NPLOC4 (UniProt I3L3I1) | inactive: -0.041 |
| NTAN1 (UniProt Q96AB6) | inactive: 0.071 |

What follows are targets tested with CC1=C(SC2=C1C(=N[C@H](C3=NN=C(N32)C)CC(=O)N)C4=CC=C(C=C4)Cl)C in the same assay as above.
Procedure, shortened: as §1

| Target | log2 fold change |
| --- | --- |
| NUFIP1 (UniProt Q9UHK0) | inactive: -0.017 |
| NR2C1 (UniProt P13056) | inactive: -0.092 |
| NRIP1 (UniProt P48552) | inactive: 0.112 |
| NUDT14 (UniProt O95848) | inactive: 0.007 |
| NSUN7 (UniProt Q8NE18) | inactive: -0.046 |
| NSD2 (UniProt O96028) | inactive: -0.08 |
| NOS1AP (UniProt O75052) | inactive: 0.154 |
| NRGN (UniProt Q92686) | inactive: 0.042 |
| NR2F2 (UniProt P24468) | inactive: -0.117 |
| NOLC1 isoform 3 (UniProt Q14978) | inactive: 0.042 |
| NRDE2 (UniProt Q9H7Z3) | inactive: -0.161 |
| NOMO1 (UniProt Q15155) | inactive: 0.099 |
| NOP2 isoform 4 (UniProt P46087) | inactive: 0.002 |
| NOP10 (UniProt Q9NPE3) | inactive: 0.189 |
| NSD3 (UniProt Q9BZ95) | inactive: 0.037 |
| NPLOC4 (UniProt I3L3I1) | inactive: 0.2 |
| NTAN1 (UniProt Q96AB6) | inactive: 0.01 |

Each target was assayed with CC1=C2C(=CC=C1)N=C(N(C2=O)C3=CC=CC=C3C)CN4C=NC5=C(N=CN=C54)N in the same assay as above.
Procedure, shortened: as §1

| Target | log2 fold change |
| --- | --- |
| NOTCH1 (UniProt P46531) | inactive: 0.097 |
| NR2C1 (UniProt P13056) | inactive: -0.006 |
| NMU (UniProt P48645) | inactive: 0.15 |
| NOL8 (UniProt Q76FK4) | inactive: -0.093 |
| NOM1 (UniProt Q5C9Z4) | inactive: 0.155 |
| NUDT18 (UniProt Q6ZVK8) | inactive: -0.041 |
| NUDT8 (UniProt Q8WV74) | inactive: 0.026 |
| NUDT22 (UniProt Q9BRQ3) | inactive: 0.117 |
| NSUN7 (UniProt Q8NE18) | inactive: 0.06 |
| NSD2 (UniProt O96028) | inactive: -0.352 |
| NOS1AP (UniProt O75052) | inactive: 0.082 |
| NPRL3 (UniProt Q12980) | inactive: 0.08 |
| NTRK1 (UniProt P04629) | inactive: -0.06 |
| NRIP3 (UniProt Q9NQ35) | inactive: 0.101 |
| NUBPL (UniProt Q8TB37) | inactive: -0.098 |
| NOS3 (UniProt P29474) | inactive: -0.036 |
| NSD1 (UniProt Q96L73) | inactive: -0.081 |
| NUDT6 (UniProt P53370) | inactive: -0.222 |
| NOL3 isoform 3 (UniProt O60936) | inactive: -0.099 |
| NOP2 isoform 4 (UniProt P46087) | inactive: 0.018 |
| NOP10 (UniProt Q9NPE3) | inactive: -0.014 |
| NTAN1 (UniProt Q96AB6) | inactive: 0.121 |

These targets were tested with Cc1sc2c(c1C)C(c1ccc(Cl)cc1)=N[C@@H](CC(=O)OC(C)(C)C)c1nnc(C)n1-2 in the same assay as above.
Procedure, shortened: as §1

| Target | log2 fold change |
| --- | --- |
| NOTCH1 (UniProt P46531) | inactive: -0.12 |
| NUFIP1 (UniProt Q9UHK0) | inactive: 0.042 |
| NOL8 (UniProt Q76FK4) | inactive: 0 |
| NOM1 (UniProt Q5C9Z4) | inactive: -0.088 |
| NRIP1 (UniProt P48552) | inactive: -0.071 |
| NUDT8 (UniProt Q8WV74) | inactive: 0.003 |
| NUDT14 (UniProt O95848) | inactive: -0.112 |
| NRGN (UniProt Q92686) | inactive: 0.159 |
| NUMB isoform 2 (UniProt P49757) | inactive: -0.207 |
| NTRK1 (UniProt P04629) | inactive: 0.259 |
| NUBPL (UniProt Q8TB37) | inactive: 0.075 |
| NOMO3 (UniProt P69849) | inactive: -0.011 |
| NR2F2 (UniProt P24468) | inactive: -0.008 |
| NOL4L (UniProt Q96MY1) | inactive: 0.033 |
| NOLC1 isoform 3 (UniProt Q14978) | inactive: -0.015 |
| NRDE2 (UniProt Q9H7Z3) | inactive: 0.232 |
| NSD1 (UniProt Q96L73) | inactive: -0.159 |
| NUDT6 (UniProt P53370) | inactive: 0.009 |
| NOL3 isoform 3 (UniProt O60936) | inactive: 0.268 |
| NOMO1 (UniProt Q15155) | inactive: 0.198 |
| NOP2 isoform 4 (UniProt P46087) | inactive: 0.017 |
| NRSN2 (UniProt Q9GZP1) | inactive: -0.207 |
| NOP10 (UniProt Q9NPE3) | inactive: 0.004 |
| NR2F6 (UniProt P10588) | inactive: 0.017 |
| NSD3 (UniProt Q9BZ95) | inactive: 0.151 |
| NOCT (UniProt Q9UK39) | inactive: 0.021 |
| NPLOC4 (UniProt I3L3I1) | inactive: -0.101 |
| NTAN1 (UniProt Q96AB6) | inactive: -0.045 |
| NT5C2 (UniProt Q5JUV3) | inactive: -0.177 |
